Measured values reported in paper PMC8849481.
Numbering of substitutions follows the chain as printed. No constants are given. Whether binding was seen depends on the method and setting. In cells and extracts the contact can be indirect. Binding calls can cover weak binding; strength is not graded here. Sequences can lack the tags named with a protein.

Columns and labels:
Assay in all cases: co-IP; anti-Flag M2 affinity gel with 1 mg lysate of transfected HEK293T cells in RIPA buffer (0.1% SDS, 1% Triton X-100, 1% sodium deoxycholate, 150 mM NaCl, 10 mM Tris pH 7.5, 1 mM EDTA), overnight at 4°C, three washes, Western blot; one panel (Fig 2G) with or without RNase A
[1] = biological target: T1, MxB K131A, Flag-tagged (human) (UniProt P20592)
T1 sequence: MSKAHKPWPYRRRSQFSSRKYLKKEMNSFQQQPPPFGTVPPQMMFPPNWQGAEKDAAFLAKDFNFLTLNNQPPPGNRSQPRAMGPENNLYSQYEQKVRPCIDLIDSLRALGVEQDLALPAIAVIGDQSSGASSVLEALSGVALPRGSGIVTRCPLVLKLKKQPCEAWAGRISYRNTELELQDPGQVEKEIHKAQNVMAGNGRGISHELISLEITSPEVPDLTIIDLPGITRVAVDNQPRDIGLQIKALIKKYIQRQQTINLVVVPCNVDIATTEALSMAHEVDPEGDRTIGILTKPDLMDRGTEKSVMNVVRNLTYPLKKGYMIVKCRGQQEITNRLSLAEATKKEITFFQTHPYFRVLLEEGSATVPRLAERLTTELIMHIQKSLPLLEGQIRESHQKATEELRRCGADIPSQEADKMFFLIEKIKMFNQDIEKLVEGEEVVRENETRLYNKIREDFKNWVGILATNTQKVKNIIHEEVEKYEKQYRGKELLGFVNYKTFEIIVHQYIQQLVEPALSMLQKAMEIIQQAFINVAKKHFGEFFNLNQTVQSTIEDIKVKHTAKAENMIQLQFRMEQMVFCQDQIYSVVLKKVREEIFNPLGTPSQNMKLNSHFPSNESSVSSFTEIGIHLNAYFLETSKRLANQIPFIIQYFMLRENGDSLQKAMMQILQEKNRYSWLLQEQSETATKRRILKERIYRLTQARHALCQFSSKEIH

[2] = biological target: T2, MxB R449D/F495D, Flag-tagged (human) (UniProt P20592)
T2 sequence: T1 sequence with A131K, R449D, F495D

[3] = biological target: T3, MxB M574D/Y651D, Flag-tagged (human) (UniProt P20592)
T3 sequence: T1 sequence with A131K, M574D, Y651D

[4] = biological target: T4, myxovirus resistance protein B (MxB), Flag-tagged (human) (UniProt P20592)
T4 sequence: T1 sequence with A131K

binding [1] | binding [2] | binding [3] | binding [4] | Substance
binds | binds | binds | binds | LINE-1 ORF1p expressed from the CMV-L1-neo^RT reporter DNA (human)
– | – | – | binds | LINE-1 ORF1p, Myc-tagged (human)
– | – | – | binds | endogenous LINE-1 ORF1p (human (endogenous in HEK293T))
